Source: publication PMC3681753
These are yes or no findings as the source states them, for the method shown. Binding seen in cells or lysates may run through a third protein. Some binding calls cover weakened binding; strength is not graded here. For some assays here: Where a sequence is shown, tags or fusion partners need not be part of it. One block for each binder: values may come before it.

Key:
[1] = molecular target: FLAG-p65 (NF-κB RELA/p65 subunit) (human), Q04206; assay: co-IP; HEK 293T transfected 48 h with FLAG-tagged bait; extracts made after 16 h of IFN-α, GSK3 inhibitor BIO (5 µM) or SeV infection; immunoprecipitation against FLAG; blot with anti-FLAG and anti-CTNNB1 (endogenous CTNNB1); details: remark: other sources report otherwise
[2] = molecular target: FLAG-p65 (NF-κB RELA/p65 subunit) (human), Q04206; assay: co-IP; HEK 293T co-transfected 48 h with CTNNB1 and FLAG-tagged bait; extracts made after 16 h of SeV infection; immunoprecipitation against FLAG; blot with anti-FLAG and anti-CTNNB1; details: remark: other sources report otherwise

binding [1]: binds
B1: endogenous CTNNB1 (β-catenin), P35222 1-781 (protein)
chain: MATQADLMELDMAMEPDRKAAVSHWQQQSYLDSGIHSGATTTAPSLSGKGNPEEEDVDTSQVLYEWEQGFSQSFTQEQVADIDGQYAMTRAQRVRAAMFPETLDEGMQIPSTQFDAAHPTNVQRLAEPSQMLKHAVVNLINYQDDAELATRAIPELTKLLNDEDQVVVNKAAVMVHQLSKKEASRHAIMRSPQMVSAIVRTMQNTNDVETARCTAGTLHNLSHHREGLLAIFKSGGIPALVKMLGSPVDSVLFYAITTLHNLLLHQEGAKMAVRLAGGLQKMVALLNKTNVKFLAITTDCLQILAYGNQESKLIILASGGPQALVNIMRTYTYEKLLWTTSRVLKVLSVCSSNKPAIVEAGGMQALGLHLTDPSQRLVQNCLWTLRNLSDAATKQEGMEGLLGTLVQLLGSDDINVVTCAAGILSNLTCNNYKNKMMVCQVGGIEALVRTVLRAGDREDITEPAICALRHLTSRHQEAEMAQNAVRLHYGLPVVVKLLHPPSHWPLIKATVGLIRNLALCPANHAPLREQGAIPRLVQLLVRAHQDTQRRTSMGGTQQQFVEGVRMEEIVEGCTGALHILARDVHNRIVIRGLNTIPLFVQLLYSPIENIQRVAAGVLCELAQDKEAAEAIEAEGATAPLTELLHSRNEGVATYAAAVLFRMSEDKPQDYKKRLSVELTSSLFRTEPMAWNETADLGLDIGAQGEPLGYRQDDPSYRSFHSGGYGQDALGMDPMMEHEMGGHHPGADYPVDGLPDLGHAQDLMDGLPPGDSNQLAWFDTDL

binding [2]: binds
B2: exogenous CTNNB1 (β-catenin), untagged, P35222 1-781 (protein)
chain: B1 chain
